This data set is described as follows: Clinical Phase 1 trials. The class given is in vivo, human.

Each structure is given as a SMILES string.

In the case of `O=C([O-])C(Cl)Cl.O=C1O[C@H]([C@@H](O)CO)C([O-])=C1O.[Ca+2]` [Example 1, calcium salts of dichloroacetic acid and ascorbic acid], the “maximum dose confirmed in clinical Phase 1 trials, intravenous” value (intravenous administration) stood at 32.43 mg/kg. Moreover, the “maximum dose confirmed in clinical Phase 1 trials, oral” value (oral administration) is reported as 64.86 mg/kg.

Source of the values: patent US20250375473A1, “Pharmaceutical composition for treating cancer comprising an ionic compound having metal ion binding thereto” (METAFINES.CO.LTD., priority 2018, published 2025).
